In assay [1] the target is Porcine pancreas elastase (Sigma-Aldrich) (porcine) (UniProt P00772). In words: SDS-PAGE of the AAT-elastase complex, Coomassie stain; AAT (0.5 mg/mL, diluted 1 in 25) mixed with porcine pancreas elastase at a molar ratio of 2:1 (AAT:elastase), 30 min at room temperature, in some samples with 10 ng/mL LPS and 12 µg/mL spike; stopped with SDS sample buffer; 7.5% SDS gel (same samples also on 7.5% native gel); both purified.

By UniProt entry, the sequences of proteins in these tests, tags left out. Residues count along the entry.
UniProt P00772, residues 27-266: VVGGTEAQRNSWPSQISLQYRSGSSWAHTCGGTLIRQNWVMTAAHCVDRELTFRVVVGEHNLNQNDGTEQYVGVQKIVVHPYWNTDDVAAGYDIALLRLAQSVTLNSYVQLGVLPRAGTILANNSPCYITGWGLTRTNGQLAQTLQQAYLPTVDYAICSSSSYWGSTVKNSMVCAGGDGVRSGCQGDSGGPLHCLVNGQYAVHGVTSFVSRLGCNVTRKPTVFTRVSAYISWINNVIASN
UniProt P01009, residues 25-418: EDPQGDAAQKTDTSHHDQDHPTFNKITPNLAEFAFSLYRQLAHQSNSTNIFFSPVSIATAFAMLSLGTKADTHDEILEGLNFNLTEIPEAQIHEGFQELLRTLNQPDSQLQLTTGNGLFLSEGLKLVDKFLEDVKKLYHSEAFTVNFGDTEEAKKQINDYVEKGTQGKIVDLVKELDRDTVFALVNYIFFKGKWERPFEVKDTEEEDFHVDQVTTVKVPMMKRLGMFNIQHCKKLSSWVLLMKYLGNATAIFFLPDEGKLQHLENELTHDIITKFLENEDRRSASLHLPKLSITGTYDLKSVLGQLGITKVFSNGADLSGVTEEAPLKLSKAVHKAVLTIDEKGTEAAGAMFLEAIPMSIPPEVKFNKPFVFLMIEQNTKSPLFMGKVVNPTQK

The target is the same in assay [2]. Nature of the assay: SDS-PAGE and Western blot (anti-AAT) of the AAT-elastase complex; supernatants of PBMCs cultured 6 h at 37 °C with 0.5 mg/mL AAT, some with 10 ng/mL LPS and 12 µg/mL spike, then incubated with porcine pancreas elastase at a molar ratio of 2:1 (AAT/elastase) for 30 min at room temperature; stopped with SDS sample buffer; 7.5% SDS gel, blot with polyclonal rabbit anti-human AAT; only the target purified.

Consider one substance from paper PMC8347018.

Results are given in words; binding and its absence hold for the method and conditions named. Some binding calls cover weakened binding; strength is not graded here.

For the substance “Recombinant α-1 antitrypsin (recAAT) produced in CHO cells (ExcellGene) (from UniProt P01009 25-418)”, the binding entry in assay [1] and in assay [2] was “binds” in each case.
